Reference: PubChem BioAssay AID1259308 (NCATS, 2017)
Here is one part, drawn at random, of about 59,000 reagents tested. Of all reagents, about 1,510 (2.6%) were called active. 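Calls use total luciferase alone and ignore viability, so some active siRNAs may act by altering cell number.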 The numbers tell different reagents against one gene apart.

- Aim: 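Genes whose loss raises luciferase production in HEK293 cells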 (primary screen)
- Cell system: human HEK293 embryonic kidney cells stably expressing firefly luciferase (HEK-CMV-Luc2-Hygro)
- Reagent: single siRNA against human genes, 0.8 pmol siRNA per well
- Timing: 72 h
- Measured: 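Luciferase light (ONE-Glo) measured on one replicate plate set and viability (CellTiter-Glo) on the other, scaled to a negative control siRNA, with robust z-scores and luciferase per cell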
- Reading the numbers: total luciferase, z-score and total luciferase, % of control: higher = more reporter protein produced; luciferase per cell, z-score: higher = more reporter output per viable cell; viable cells, % of control: higher = more viable cells
- Hit rule: 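Active when the median/MAD z-score for overall luciferase is greater than 3; a gene was taken forward for validation with new siRNAs if at least two of its three siRNAs passed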
- Meaning of the calls: active = raised luciferase; inactive = no rise

no.	gene	siRNA no.	total luciferase, z-score	total luciferase, % of control	luciferase per cell, z-score	viable cells, % of control	call
1	SPO11	1	-1.87	44.8	-2.01	84.8	inactive
2	SPO11	2	0.0871	83.6	-0.605	110	inactive
3	SPO11	3	0.0616	83.1	-0.423	104	inactive
4	GLT8D1	1	0.904	99.9	0.815	90	inactive
5	GLT8D1	2	-0.398	74	-0.445	92.9	inactive
6	GLT8D1	3	-1.85	45	-2.16	88.8	inactive
7	MIX23	1	-0.597	70	-0.32	85.1	inactive
8	MIX23	2	4.57	173	3.72	72.5	active
9	MIX23	3	-1.17	58.6	0.111	63.6	inactive
10	LAS1L	1	-2.31	35.9	-2.67	81.1	inactive
11	LAS1L	2	1.68	115	1.54	85.8	inactive
12	LAS1L	3	0.493	91.7	0.427	91.6	inactive
13	RTL4	1	-1.33	55.5	-1.31	87.5	inactive
14	RTL4	2	2.34	129	1.87	87.8	inactive
15	RTL4	3	-0.998	62	-1.09	92.3	inactive
16	LCN9	1	0.575	93.3	0.885	82.6	inactive
17	LCN9	2	1.38	109	1.41	84.3	inactive
18	LCN9	3	-0.602	69.9	-1.04	103	inactive
19	GIMAP1	1	5.81	197	4.1	75	active
20	GIMAP1	2	-1.21	57.7	-1.58	97.9	inactive
21	GIMAP1	3	-0.408	73.8	-1.06	109	inactive
22	NPSR1	1	0.255	87	-0.772	119	inactive
23	NPSR1	2	-1.45	53.1	-0.981	76.8	inactive
24	NPSR1	3	0.112	84.1	0.878	74.6	inactive
